In PubChem BioAssay (EPA / NIEHS):
Inconclusive means that the source gave no clear call. Such entries were picked first, then a sample of the others. For part of these data: Where the call is inconclusive, the potency comes from a doubtful curve fit. Some structures have more than one record in an assay (separate samples or runs), and their calls can disagree. Active and inactive are the calls of the source. Rule for the calls: active = hit-call score of the fitted dose curve at least 0.9, where 1 is the maximum; inconclusive = response in the unintended direction; inactive = score below 0.9. Peptide text beside a SMILES is read from it.

By UniProt entry, the sequences of proteins in these tests, tags left out. Where a name states a change or a piece, a line headed by the entry shows the natural chain unless it says otherwise.
UniProt Q96RI1: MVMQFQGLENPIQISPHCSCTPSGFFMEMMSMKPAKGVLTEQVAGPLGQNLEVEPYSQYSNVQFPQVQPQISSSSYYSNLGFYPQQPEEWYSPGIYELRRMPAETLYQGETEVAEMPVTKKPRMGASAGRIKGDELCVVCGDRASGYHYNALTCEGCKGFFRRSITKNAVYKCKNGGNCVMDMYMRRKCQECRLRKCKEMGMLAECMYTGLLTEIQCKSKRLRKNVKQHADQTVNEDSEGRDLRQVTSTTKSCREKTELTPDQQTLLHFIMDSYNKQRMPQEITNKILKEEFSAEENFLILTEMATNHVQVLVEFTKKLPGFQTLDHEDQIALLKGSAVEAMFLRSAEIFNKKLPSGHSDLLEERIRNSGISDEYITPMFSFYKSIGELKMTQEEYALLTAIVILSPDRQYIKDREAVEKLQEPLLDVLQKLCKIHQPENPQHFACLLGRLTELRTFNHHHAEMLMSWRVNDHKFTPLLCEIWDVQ
UniProt P10827: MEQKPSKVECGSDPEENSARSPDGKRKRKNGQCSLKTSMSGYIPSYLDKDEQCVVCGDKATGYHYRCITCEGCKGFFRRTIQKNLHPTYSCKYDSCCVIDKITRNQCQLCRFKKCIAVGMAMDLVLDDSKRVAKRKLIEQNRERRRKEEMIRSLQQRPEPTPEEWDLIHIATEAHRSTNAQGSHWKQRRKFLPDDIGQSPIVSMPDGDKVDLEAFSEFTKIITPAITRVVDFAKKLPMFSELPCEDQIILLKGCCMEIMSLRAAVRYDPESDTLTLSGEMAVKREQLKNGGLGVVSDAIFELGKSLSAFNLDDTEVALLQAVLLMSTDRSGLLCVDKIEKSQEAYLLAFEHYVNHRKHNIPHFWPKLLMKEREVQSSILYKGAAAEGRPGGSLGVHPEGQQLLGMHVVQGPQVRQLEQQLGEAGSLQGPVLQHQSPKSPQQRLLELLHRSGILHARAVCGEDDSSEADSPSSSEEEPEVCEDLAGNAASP
UniProt P04386, whole entry, looked up: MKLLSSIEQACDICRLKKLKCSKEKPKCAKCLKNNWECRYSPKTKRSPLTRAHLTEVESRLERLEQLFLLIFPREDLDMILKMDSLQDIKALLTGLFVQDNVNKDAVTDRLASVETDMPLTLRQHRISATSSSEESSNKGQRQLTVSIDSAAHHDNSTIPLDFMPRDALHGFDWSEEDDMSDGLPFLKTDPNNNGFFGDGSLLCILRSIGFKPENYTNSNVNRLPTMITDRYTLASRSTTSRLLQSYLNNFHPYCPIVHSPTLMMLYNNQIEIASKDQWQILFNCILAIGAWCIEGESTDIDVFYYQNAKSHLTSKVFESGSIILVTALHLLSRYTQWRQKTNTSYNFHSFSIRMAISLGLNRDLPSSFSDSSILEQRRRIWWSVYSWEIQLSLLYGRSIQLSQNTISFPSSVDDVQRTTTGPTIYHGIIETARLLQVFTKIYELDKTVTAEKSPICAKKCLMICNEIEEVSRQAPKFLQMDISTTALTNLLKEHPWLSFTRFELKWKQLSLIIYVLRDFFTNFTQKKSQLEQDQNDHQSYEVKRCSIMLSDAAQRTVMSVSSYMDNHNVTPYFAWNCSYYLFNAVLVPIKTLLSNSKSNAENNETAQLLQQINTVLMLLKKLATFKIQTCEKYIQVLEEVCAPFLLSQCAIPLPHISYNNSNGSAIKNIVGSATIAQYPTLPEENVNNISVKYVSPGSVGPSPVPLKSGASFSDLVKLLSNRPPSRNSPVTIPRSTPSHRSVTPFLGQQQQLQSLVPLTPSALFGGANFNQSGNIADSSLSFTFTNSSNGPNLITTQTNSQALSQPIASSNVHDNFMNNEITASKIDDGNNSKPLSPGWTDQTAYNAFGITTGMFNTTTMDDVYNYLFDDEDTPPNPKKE
UniProt P57717: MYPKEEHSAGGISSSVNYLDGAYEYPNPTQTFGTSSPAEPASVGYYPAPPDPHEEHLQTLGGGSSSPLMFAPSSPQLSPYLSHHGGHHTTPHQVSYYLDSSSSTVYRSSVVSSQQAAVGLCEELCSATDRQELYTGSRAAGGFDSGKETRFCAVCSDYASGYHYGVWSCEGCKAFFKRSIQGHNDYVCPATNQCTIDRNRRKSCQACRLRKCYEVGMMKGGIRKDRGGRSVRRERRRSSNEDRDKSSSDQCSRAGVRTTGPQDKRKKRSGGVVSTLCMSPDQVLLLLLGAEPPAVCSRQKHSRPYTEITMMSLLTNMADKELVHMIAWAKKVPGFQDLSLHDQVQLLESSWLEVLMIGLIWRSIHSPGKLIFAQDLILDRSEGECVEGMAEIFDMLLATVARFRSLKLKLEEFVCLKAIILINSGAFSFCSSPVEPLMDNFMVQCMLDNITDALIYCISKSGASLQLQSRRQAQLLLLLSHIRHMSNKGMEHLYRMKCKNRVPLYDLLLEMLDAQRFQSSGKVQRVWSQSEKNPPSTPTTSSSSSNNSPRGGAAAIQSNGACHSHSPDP
UniProt P10828: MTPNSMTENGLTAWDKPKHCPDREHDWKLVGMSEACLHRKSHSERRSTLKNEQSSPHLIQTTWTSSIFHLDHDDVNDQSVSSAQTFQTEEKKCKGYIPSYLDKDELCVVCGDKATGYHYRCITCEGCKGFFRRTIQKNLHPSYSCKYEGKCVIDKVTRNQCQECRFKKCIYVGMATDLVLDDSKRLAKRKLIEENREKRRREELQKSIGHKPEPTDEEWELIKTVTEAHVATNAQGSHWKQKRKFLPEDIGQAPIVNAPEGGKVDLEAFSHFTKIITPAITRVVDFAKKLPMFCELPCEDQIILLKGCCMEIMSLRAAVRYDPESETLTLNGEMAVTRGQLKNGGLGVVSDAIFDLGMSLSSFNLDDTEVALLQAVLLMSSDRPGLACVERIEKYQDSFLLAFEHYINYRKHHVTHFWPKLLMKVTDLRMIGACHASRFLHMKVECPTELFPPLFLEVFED
UniProt P37231: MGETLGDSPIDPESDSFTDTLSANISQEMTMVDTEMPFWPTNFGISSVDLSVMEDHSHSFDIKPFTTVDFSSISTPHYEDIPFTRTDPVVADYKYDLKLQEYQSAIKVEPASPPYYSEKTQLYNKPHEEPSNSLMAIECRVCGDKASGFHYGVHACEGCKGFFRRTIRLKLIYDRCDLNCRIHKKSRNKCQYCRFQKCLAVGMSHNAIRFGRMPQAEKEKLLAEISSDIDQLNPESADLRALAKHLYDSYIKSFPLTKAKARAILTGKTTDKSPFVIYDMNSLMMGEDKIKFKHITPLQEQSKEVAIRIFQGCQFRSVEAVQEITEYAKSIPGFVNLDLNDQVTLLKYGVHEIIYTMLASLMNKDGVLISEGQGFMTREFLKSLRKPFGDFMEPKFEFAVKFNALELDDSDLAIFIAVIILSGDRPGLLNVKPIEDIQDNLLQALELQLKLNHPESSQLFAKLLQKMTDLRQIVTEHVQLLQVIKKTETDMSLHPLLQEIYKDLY
UniProt P43378: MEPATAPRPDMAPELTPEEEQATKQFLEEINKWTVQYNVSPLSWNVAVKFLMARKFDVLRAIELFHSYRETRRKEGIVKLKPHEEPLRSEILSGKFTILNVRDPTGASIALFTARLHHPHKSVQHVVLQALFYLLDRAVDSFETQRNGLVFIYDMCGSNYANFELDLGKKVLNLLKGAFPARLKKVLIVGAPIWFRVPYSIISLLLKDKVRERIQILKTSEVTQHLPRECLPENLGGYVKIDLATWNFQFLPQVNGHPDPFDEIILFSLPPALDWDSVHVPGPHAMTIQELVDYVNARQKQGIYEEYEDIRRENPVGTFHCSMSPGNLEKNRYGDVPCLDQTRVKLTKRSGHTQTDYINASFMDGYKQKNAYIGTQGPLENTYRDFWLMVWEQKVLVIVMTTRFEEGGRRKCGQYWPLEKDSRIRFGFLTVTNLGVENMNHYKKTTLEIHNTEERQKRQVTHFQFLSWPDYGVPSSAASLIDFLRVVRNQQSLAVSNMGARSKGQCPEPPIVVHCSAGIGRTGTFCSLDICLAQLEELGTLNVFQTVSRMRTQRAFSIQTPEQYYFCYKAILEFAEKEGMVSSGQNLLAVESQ

Assays:
[1] = biological target: Bile acid receptor (Homo sapiens) (UniProt Q96RI1); experiment: NVS_NR_hFXR_Antagonist: NovaScreen (NVS) Nuclear Receptor Binding Assay for human Farnesoid X Receptor Antagonism (FXR) (AID 2283350)
How it was run: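 Cell-free TR-FRET ligand-binding read-out on human FXR (NR1H4) in antagonist mode, measured 1 h after dosing. Primary screen in duplicate at 25 uM, actives retested in concentration series; signal loss scored versus DMSO.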

[2] = biological target: human Thyroid Receptor Alpha (TRa), THRA (gene 7067) (UniProt P10827); experiment: NVS_NR_hTRa_Antagonist: NovaScreen (NVS) Nuclear Receptor Binding Assay for human Thyroid Receptor Alpha Antagonism (TRa) (AID 2283362);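 note: activity is loss of signal relative to DMSO baseline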
How it was run: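 Cell-free binding assay on extracted receptor protein, read 1 h after chemical dosing by AlphaLISA chemiluminescence; loss of signal relative to DMSO baseline marks antagonism. Primary screen ran in duplicate at 25 uM, with concentration series for actives.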

[3] = read-out: ABC Transporter (ABCB1), ABCB1 (gene 5243); experiment: CLD_ABCB1_6hr: CellzDirect (CLD) Gene Expression Assay for ABC Transporter (ABCB1) at 6 hours (AID 2283659);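 for outcome: hits raise ABCB1 transcript above the DMSO vehicle baseline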
How it was run: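 Primary human hepatocytes (two donor preparations) dosed daily for two days with chemicals at multiple concentrations, 0.2% DMSO vehicle; harvested 6 h post-dose. ABCB1 mRNA induction quantified by qNPA chemiluminescence; gain-of-signal fitted versus DMSO.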

[4] = read-out: alkyl and aryl transferase (GSTA2), GSTA2 (gene 2939); experiment: CLD_GSTA2_6hr: CellzDirect (CLD) Gene Expression Assay for alkyl and aryl transferase (GSTA2) at 6 hours (AID 2283666)
How it was run: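 Primary human hepatocytes from two donor preparations were dosed daily with fresh compound at multiple concentrations, 0.2% DMSO vehicle. GSTA2 mRNA was measured at 6 hours by qNPA chemiluminescence; induction fitted relative to DMSO, with cytotoxicity flagged morphologically.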

[5] = read-out: organic anion transporter (SLCO1B1), SLCO1B1 (gene 10599); experiment: CLD_SLCO1B1_6hr: CellzDirect (CLD) Gene Expression Assay for organic anion transporter (SLCO1B1) at 6 hours (AID 2283668);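 note: active means mRNA induction above DMSO baseline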
How it was run: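 Primary human hepatocytes dosed daily with test chemicals (multiple concentrations) in 0.2% DMSO vehicle; harvested at 6 h. SLCO1B1 mRNA quantified by qNPA chemiluminescence, fitted as gain-of-signal versus DMSO; cytotoxicity from phase-contrast morphology flagged alongside.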

[6] = CLD_ACTIN_6hr: CellzDirect (CLD) Gene Expression Assay for Baseline Control (Actin) at 6 hours (AID 2283676);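 for outcome: active means increased actin mRNA relative to DMSO vehicle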
How it was run: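 Primary human hepatocytes dosed with fresh chemical solutions (vehicle 0.2% DMSO), harvested at 6 h. Actin mRNA quantified by quantitative nuclease protection assay with chemiluminescent read-out, as background control relative to DMSO.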

[7] = read-out: ABC Transporter (ABCB1), ABCB1 (gene 5243); experiment: CLD_ABCB1_48hr: CellzDirect (CLD) Gene Expression Assay for ABC Transporter (ABCB1) at 48 hours (AID 2283695);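 note: potency for induction meaning increase of mRNA over DMSO vehicle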
How it was run: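 Primary human hepatocytes from two donor preparations dosed daily on two consecutive days with 0.2% DMSO vehicle. Harvest at 48 h. ABCB1 mRNA quantified by qNPA with chemiluminescence and fitted for gain of signal versus DMSO.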

[8] = read-out: sulfotransferase (SULT2A), SULT2A1 (gene 6822); experiment: CLD_SULT2A_48hr: CellzDirect (CLD) Gene Expression Assay for sulfotransferase (SULT2A) at 48 hours (AID 2283710);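 note: hits raise SULT2A1 transcript above the 0.2% DMSO vehicle baseline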
How it was run: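 Primary human hepatocytes (two donor preparations) dosed daily for two days with chemicals at multiple concentrations, vehicle 0.2% DMSO; SULT2A1 mRNA induction at 48 h by quantitative nuclease protection assay, chemiluminescent read-out, fitted for gain of signal versus DMSO.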

[9] = biological target: GAL4 Transcription Factor (Internal Marker), GAL4 (gene 855828) (UniProt P04386); experiment: ATG_GAL4_XSP2: Attagene TRANS-FACTORIAL Multi-Species (XSP2) HepG2 Assay for GAL4 Transcription Factor (Internal Marker) (AID 2283814);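 note: GAL4 reporter mRNA background control in MRTU transfected cells not a receptor target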
How it was run: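 HepG2 cells transiently transfected with GAL4-UAS reporter units, stimulated with 3 nM 6-alpha-fluorotestosterone plus 1.5 nM norgestrel, dosed 24 h. Reporter mRNA by RT-PCR/capillary electrophoresis; gain-of-signal fit versus DMSO, background control.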

[10] = biological target: zebrafish Estrogen Receptor (ER1), esr1 (gene 259252) (UniProt P57717); experiment: ATG_zfER1_XSP2: Attagene TRANS-FACTORIAL Multi-Species (XSP2) HepG2 Assay for zebrafish Estrogen Receptor (ER1) (AID 2283816)
How it was run: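 HepG2 cells transiently transfected with a GAL4-UAS reporter and a chimeric zebrafish ER1-Gal4 construct, dosed 24 h. Reporter mRNA quantified by RT-PCR, labelling, HpaI digestion and capillary electrophoresis, relative to DMSO.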

[11] = test system: zebrafish Androgen Receptor (AR), gene 100005148; experiment: ATG_zfAR_XSP2: Attagene TRANS-FACTORIAL Multi-Species (XSP2) HepG2 Assay for zebrafish Androgen Receptor (AR) (AID 2283825);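 note: hits raise reporter mRNA above DMSO so AC50 reflects agonist-type gain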
How it was run: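 Zebrafish AR–GAL4 chimera transiently expressed with GAL4-UAS reporter in HepG2 cells, co-stimulated with 3 nM 6-alpha-fluorotestosterone and 1.5 nM norgestrel; 24 h dosing, reporter mRNA read by RT-PCR/capillary electrophoresis versus DMSO.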

[12] = test system: zebrafish Peroxisome Proliferator-activated Receptor gamma (PPARg), gene 557037; experiment: ATG_zfPPARg_XSP2: Attagene TRANS-FACTORIAL Multi-Species (XSP2) HepG2 Assay for zebrafish Peroxisome Proliferator-activated Receptor gamma (PPARg) (AID 2283833);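 note: actives increase reporter signal over DMSO so AC50 reflects activation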
How it was run: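 HepG2 cells transiently transfected with GAL4-UAS reporter units expressing a zebrafish PPARg–GAL4 chimera; compound exposure 24 h. Reporter mRNA quantified by RT-PCR with fluorescent labelling and capillary electrophoresis; gain of signal fitted relative to DMSO baseline.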

[13] = biological target: human Thyroid hormone Receptor alpha (TRa), THRA (gene 7067) (UniProt P10827); experiment: ATG_hTRa_XSP2: Attagene TRANS-FACTORIAL Multi-Species (XSP2) HepG2 Assay for human Thyroid hormone Receptor alpha (TRa) (AID 2283838)
How it was run: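 HepG2 cells transiently transfected with multiplexed GAL4-UAS reporter units and exogenous NR-GAL4 chimeras; 24 h chemical exposure with 3 nM 6-alpha-fluorotestosterone and 1.5 nM norgestrel present. Reporter mRNA measured by RT-PCR, FAM labelling, HpaI digestion, capillary electrophoresis; gain-of-signal versus DMSO.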

[14] = biological target: human Thyroid hormone Receptor beta (TRb), THRB (gene 7068) (UniProt P10828); experiment: ATG_hTRb_XSP2: Attagene TRANS-FACTORIAL Multi-Species (XSP2) HepG2 Assay for human Thyroid hormone Receptor beta (TRb) (AID 2283840);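 note: actives raise reporter mRNA so potency reflects agonist-like gain of signal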
How it was run: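 HepG2 cells were transiently transfected with GAL4-UAS multiplexed reporter units expressing chimeric NR-Gal4 proteins, dosed 24 h; reporter mRNA was quantified by RT-PCR, fluorescent labeling, HpaI digestion and capillary electrophoresis, fitted for gain of signal versus DMSO.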

[15] = biological target: Peroxisome proliferator-activated receptor gamma (Homo sapiens) (UniProt P37231); experiment: OT_PPARg_PPARgSRC1_1440: Odyssey Thera (OT) 24-hour Protein-Complementation Assay for Peroxisome Proliferator-activated Receptor Gamma/ SRC-1 Co-activator (AID 2283388)
How it was run: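 HEK293T cells transiently transfected with PPARg and SRC-1 fused via (Gly4Ser)2 linker to split Venus YFP fragments (IFP1/IFP2) were dosed 24 h; fixed, Draq5-stained, imaged at 488/635 nm; nuclear/cytoplasmic fluorescence ratio scored versus DMSO baseline, gain-of-signal.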

[16] = ATG_Hpa5_TRANS: Attagene TRANS-FACTORIAL HepG2 Assay for human GAL4-Hpa5 Hepatocyte Transcription Factor Basal Promoter (AID 2282975); conditions: HepG2 Attagene GAL4-Hpa5 transcription reporter;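 for outcome: hits are increases in reporter mRNA over DMSO baseline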
How it was run: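 Basal-promoter GAL4 background control within the HepG2 trans-factorial panel of transiently transfected reporter units. Reporter mRNA is measured 24 h after dosing by RT-PCR and capillary electrophoresis, fitted for gain of signal versus DMSO.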

[17] = biological target: human Protein Tyrosine Phosphatase Non-receptor Type 9 (PTPN9), PTPN9 (gene 5780) (UniProt P43378); experiment: NVS_ENZ_hPTPN9: NovaScreen (NVS) Enzymatic Assay for human Protein Tyrosine Phosphatase Non-receptor Type 9 (PTPN9) (AID 2283209)
How it was run: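 Sf9-expressed enzyme in a cell-free assay, fluorescence read 1.33 h after dosing with mobility-shift separation of substrate and product. Tested at 25 uM in duplicate, then up to 50 uM; signal loss versus DMSO.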

[18] = CCTE_Mundy_HCI_Cortical_Synap_Neur_Matur_NeuronCount: CCTE's Synaptogenesis and Neurite Maturation Assay in rat cortical cells for Neuron Count, Mundy Lab (AID 2284242);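 for AC50: neuron number from Hoechst nuclei and MAP2 staining by high-content imaging; hits reduce neuron count versus DMSO baseline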
How it was run: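 Imaging-based neuron count in rat cortical cultures after chemical exposure from DIV 7 to DIV 12, with AraC added at DIV 5. Activity is fitted relative to DMSO.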

[19] = CCTE_Deisenroth_AIME_96WELL_CTox_Active: Cytotoxicity Assessment (CTOX) in CCTE's 96-well Estrogen Receptor Transactivation Assay with AIME metabolic competence (metabolism positive), Deisenroth Lab (AID 2284028)
How it was run: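 Chemicals (0.002–200 uM) were first incubated 2 h with alginate-immobilized phenobarbital/beta-naphthoflavone-induced male rat liver S9; conditioned medium then went onto VM7Luc4E2 cells for 24 h, with viability read by protease-substrate fluorescence, fitted bidirectionally.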

[20] = CCTE_Deisenroth_AIME_96WELL_CTox_Inactive: Cytotoxicity Assessment (CTOX) in CCTE's 96-well Estrogen Receptor Transactivation Assay without AIME metabolic competence (metabolism negative), Deisenroth Lab (AID 2284029)
How it was run: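 Chemicals (10-point series, 0.002-200 uM) were incubated 2 h with alginate-water microspheres lacking S9. The conditioned medium was then transferred onto VM7Luc4E2 cells for 24 h. Viability was measured by protease-substrate cleavage to a fluorescent probe, with loss of signal fitted bidirectionally; n≥4 experimental replicates.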

SMILES: CCCCOCCOCCOCc1cc2c(cc1CCC)OCO2
- AC50 [1]: inconclusive: 6.95 µM
- AC50 [2]: inconclusive: 4.96 µM
- AC50 [3]: inconclusive: 3.97 µM
- AC50 [4]: inconclusive: 4.27 µM
- AC50 [5]: inconclusive: 20 µM
- AC50 [6]: inconclusive: 20 µM
- AC50 [7]: inconclusive: 20 µM
- AC50 [8]: active: 12 µM

SMILES: O=C(Oc1ccccc1)c1ccc(O)cc1
- outcome [9]: inactive
- AC50 [10]: active: 58.3 µM
- outcome [10]: inactive
- outcome [11]: inactive
- AC50 [12]: inconclusive: 100 µM
- outcome [13]: inactive
- AC50 [14]: inconclusive: 0.0421 µM
- outcome [14]: inactive

SMILES: CC(CO)OC(C)CO (stereo not given) (tested in a mixture with another compound)
- AC50 [15]: inconclusive: 50 µM

SMILES: c1ccc(Nc2ccccc2)cc1
- outcome [16]: inactive
- AC50 [17]: inconclusive: 25 µM
- AC50 [3]: inconclusive: 20 µM
- AC50 [6]: inconclusive: 20 µM
- AC50 [7]: inconclusive: 5.65 µM
- AC50 [8]: active: 3.48 µM

SMILES: COC(=O)[C@H](Cc1ccccc1)NC(=O)[C@@H](N)CC(=O)O (HELM PEPTIDE1{D.F.[CO[*:1]]}$$$$V2.0)
- AC50 [18]: inconclusive: 0.00358 µM

SMILES: CCCCC[C@H](O)CC(=O)CCc1ccc(O)c(OC)c1
- outcome [19]: inactive
- outcome [20]: inactive

SMILES: COc1ccccc1N=Nc1c(S(=O)(=O)O)cc2cc(S(=O)(=O)O)cc(NC(C)=O)c2c1O
- AC50 [2]: active: 8.29 µM

SMILES: CCCCCCCC/C=C\CCCCCCCC(=O)OC[C@@H](O)[C@H]1OC[C@H](O)[C@H]1O
- AC50 [17]: inconclusive: 25 µM

SMILES: Cc1ccc(C(C)C)cc1O
- outcome [15]: inactive

SMILES: CC(C)(C)[C@@H](O)[C@@H](Cc1ccc(Cl)cc1)n1cncn1
- AC50 [16]: inconclusive: 13 µM
- AC50 [5]: inconclusive: 1.9 µM

SMILES: C#C[C@]1(O)CC[C@H]2[C@@H]3CCc4cc(O)ccc4[C@H]3CC[C@@]21C
- AC50 [9]: inconclusive: 0.0269 µM
- AC50 [10]: active: 0.00255 µM
- AC50 [11]: inconclusive: 0.0205 µM
- AC50 [12]: inconclusive: 0.1 µM
- AC50 [13]: inconclusive: 0.0153 µM
- AC50 [19]: active: 135 µM
- AC50 [20]: active: 116 µM

SMILES: Oc1ccc(C(c2ccc(O)cc2)C(Cl)(Cl)Cl)cc1
- outcome [16]: inactive
- outcome [4]: inactive
- AC50 [5]: inconclusive: 20 µM
- AC50 [7]: inconclusive: 20 µM
- AC50 [8]: inconclusive: 20 µM
- outcome [9]: inactive
- AC50 [11]: inconclusive: 0.593 µM
- AC50 [12]: inconclusive: 2.59 µM
- AC50 [13]: inconclusive: 2.73 µM
- outcome [14]: inactive
- AC50 [19]: active: 109 µM
- AC50 [20]: active: 101 µM

SMILES: CCOC(=O)NCCOc1ccc(Oc2ccccc2)cc1
- outcome [3]: inactive
- AC50 [4]: inconclusive: 0.0111 µM
- outcome [6]: inactive

SMILES: c1ccc2scnc2c1
- AC50 [18]: inconclusive: 0.00101 µM

SMILES: COc1ccc(/C=C/S(=O)(=O)NC(=O)c2ccc(C)cc2Cl)cc1
- AC50 [15]: active: 60.6 µM

SMILES: COc1cc(C=O)ccc1O
- outcome [1]: inactive

SMILES: Cc1cc(Cc2ccc(N)c(C)c2)ccc1N
- AC50 [17]: inconclusive: 25 µM

SMILES: Cc1c(C(=O)O)c(O)cc2c1C(=O)c1c(O)c([C@@H]3O[C@H](CO)[C@@H](O)[C@H](O)[C@H]3O)c(O)c(O)c1C2=O
- AC50 [1]: inconclusive: 25 µM
- AC50 [2]: active: 17.3 µM

SMILES: CC(=O)CC(c1ccccc1)c1c(O)c2ccccc2oc1=O (stereo not given)
- outcome [18]: inactive
